In PubChem BioAssay AID651804 (National Center for Advancing Translational Sciences (NCATS), 2012):
Among all 1,200 compounds or so, about 20 (2%) were called active. Inconclusive results (about 23%) are left out. Calls follow the shape of the dose curve; as a rule, active = well fitted inhibition curve with a large enough effect; inconclusive = small, poorly fitted or top-dose-only effect; inactive = no such curve, though single readings can be large or run the other way. The list shows a part of the results.

The chains behind the UniProt entries cited, without tags or fusion partners. Where a name states a change or a piece, a line headed by the entry shows the natural chain unless it says otherwise.
UniProt P11308: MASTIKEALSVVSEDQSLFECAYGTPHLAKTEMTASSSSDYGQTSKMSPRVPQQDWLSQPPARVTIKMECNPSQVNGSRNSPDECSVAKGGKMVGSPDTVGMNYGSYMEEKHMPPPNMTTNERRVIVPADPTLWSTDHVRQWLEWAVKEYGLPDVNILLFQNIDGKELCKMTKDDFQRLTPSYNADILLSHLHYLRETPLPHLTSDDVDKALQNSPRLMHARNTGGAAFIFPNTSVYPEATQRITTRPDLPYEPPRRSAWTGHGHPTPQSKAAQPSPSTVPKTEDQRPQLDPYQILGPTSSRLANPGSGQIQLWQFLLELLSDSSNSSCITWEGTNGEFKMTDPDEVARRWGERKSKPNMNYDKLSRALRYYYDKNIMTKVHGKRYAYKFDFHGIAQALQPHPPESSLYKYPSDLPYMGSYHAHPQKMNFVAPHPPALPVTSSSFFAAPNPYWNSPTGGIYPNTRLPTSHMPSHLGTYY

Each compound was assayed against Transcriptional regulator ERG (Homo sapiens) (UniProt P11308) (assay: qHTS for Small Molecule Inhibitors of the ERG Ets/DNA interaction: HTRF assay against cherry picks). Details: His-ERG Ets domain with biotin-DNA; series mostly up to 154 µM; activity change, negative = inhibition: at the top concentration.
Excerpt: The Ets family of proteins is a family of ~30 conserved transcription factors defined by the presence of an ~85 amino acid domain referred to as the Ets domain, which mediates sequence-specific DNA binding to a core DNA element GGAA/T.The Ets family member ERG has been linked to several neoplasms. […] More extensive studies of the effects of over-expression of ERG in prostate cells have recently been carried out and have shown that over-expression of ERG results in increased invasion. […] We will carry out a high throughout screen to identify inhibitors of the interaction between ERG and DNA using a fluorescence polarization (FP) assay with a His-tagged ERG Ets domain and fluorescently-labeled DNA probes to develop small molecule inhibitors of this interaction as probes to test this hypothesis and lay the groundwork for the development of targeted therapies against ERG. This is the counterscreen against the cherry picks. NIH Molecular Libraries Probe Production Network [MLPCN] NIH Chemical Genomics Center [NCGC] Grant: NS066464 PI Name: John Bushweller, University of Virgina
2 ul of protein solution (200 nM ERG domain in 300mM KCl, 50mM Tris-HCl, 1mM EDTA, 1mM DTT, pH 7.5); 20 nl Control plate and compound library plate; 2 ul of 200 nM biotin-DNA; incubate for 10 min at RT; 1 ul of anti-His antibody conjugated to the long-life fluorescent cryptate donner […] (5ng/ul) and streptavidin conjugated to the acceptor compound […] (0.2 ng/ul) mix; incubate 10 min and measure FRET (Excitation = 320 nm, Emission = 615, 665 nm).
Potency is read from the fitted curve at half-maximal effect.

Row | SMILES | activity change, negative = inhibition | Potency
1 | Cc1ccc(NC(=O)c2cc3cc(OC(F)(F)F)ccc3[nH]2)cc1 | inactive: -19% | –
2 | CCN(Cc1ccccc1)C(=O)COC(=O)CNC(=O)c1ccc(C)s1 | inactive: 8.54% | –
3 | CCOc1ccc(N2C(=O)CC(N3CCN(C(=O)c4ccco4)CC3)C2=O)cc1 (centres undefined) | inactive: -17.9% | –
4 | COc1ccc(NC(=S)Nc2ccc(N(C)C(C)=O)cc2)cc1 | inactive: -5.52% | –
5 | COc1ccc(C(=O)N2CCc3ccc(NC(=O)c4ccccn4)cc3C2)cc1F | inactive: -6.05% | –
6 | Cc1nc2ccccc2c(=O)n1NC(=O)c1cccnc1Cl | inactive: -8.28% | –
7 | NCCCC(=O)O | inactive: -2.81% | –
8 | CC(C)(O)CN(CCCNC(=S)Nc1ccccc1)C(=S)Nc1ccccc1 | inactive: -4.51% | –
9 | CC(CCC(=O)O)C1CCC2C3CCC4C[C@H](O)CCC4(C)C3CC(=O)C12C (some centres undefined) | inactive: 7.37% | –
10 | O=C(COc1ccccc1)Nc1ccc2c(c1)Cc1cc(NC(=O)COc3ccccc3)ccc1-2 | inactive: -25.6% | –
11 | C=COc1ccc(N2C(=O)c3ccccc3OC2C)cc1 (centres undefined) | inactive: 5.52% | –
12 | O=C(NCCCc1ccccc1)C(=O)NCC1OCCN1S(=O)(=O)c1ccccc1 (centres undefined) | inactive: -28.9% | –
13 | CC(Oc1ccccc1)C(=O)Nc1ccc(S(=O)(=O)N2CCN(C)CC2)cc1 (centres undefined) | inactive: -39.9% | –
14 | CCOc1cc(S(=O)(=O)n2ccc(C)n2)ccc1Br | inactive: -1.7% | –
15 | COc1ccccc1NC(=O)C(=O)N/N=C(\C)CC(=O)Nc1ccccn1 | inactive: -22.8% | –
16 | Cc1cc(N)ccc1-n1c(C)ccc1C | inactive: -13.7% | –
17 | O=C(CSc1ncccc1C(=O)O)NCCC1=CCCCC1 | inactive: -3.45% | –
18 | COc1ccc(CCC(=O)N2CCN(S(=O)(=O)c3ccc(C)cc3)CC2)cc1 | inactive: 3.55% | –
19 | Clc1ccc(-c2csc(N/N=C/c3ccco3)n2)cc1 | inactive: -49.8% | –
20 | COc1cc(OC)cc(C(=O)OCC(=O)N2CCCC2)c1 | inactive: 0.212% | –
21 | COc1ccc(OC)c(NC(=O)c2cccc(NC(=O)c3ccccc3)c2)c1 | inactive: -0.212% | –
22 | Cc1ccc(C=Nc2cccnc2N)cc1 | inactive: -24.9% | –
23 | CC(=O)c1ccc(N(CC(=O)NC2CCS(=O)(=O)C2)S(=O)(=O)c2ccc(C)cc2)cc1 (centres undefined) | inactive: -0.743% | –
24 | Cc1ccc(C)c(N(CC(=O)NCc2ccco2)C(=O)CNS(=O)(=O)c2ccc(F)cc2)c1 | inactive: -8.91% | –
25 | CCn1c(CSc2ncn[nH]2)nc2cc(C(=O)O)ccc21 | inactive: -12.9% | –
26 | CCn1ncc(Br)c1C(=O)Nc1cccc(C(C)=O)c1 | inactive: -2.65% | –
27 | CCCNC(=O)C1=C(C)C(=O)OC12CCC(C)CC2 (centres undefined) | inactive: 1.59% | –

Row | SMILES | activity change, negative = inhibition | Potency
28 | O=C(NC1CCCC1)C1CCN(C(=O)c2cccc(Cl)c2)CC1 | inactive: 29.1% | –
29 | COc1ccccc1S(=O)(=O)Cc1ccc(C(=O)NCCN(C)C)o1 | inactive: -8.28% | –
30 | CCCCn1c(N)c(N(CC)C(=O)c2ccc(C#N)cc2)c(=O)[nH]c1=O | inactive: -8.75% | –
31 | COCCn1c(C)cc(C(=O)CSc2nnnn2C2CCCC2)c1C | inactive: -29.1% | –
32 | CCCNC(=O)CCC(=O)N1Cc2ccccc2Oc2ncccc21 | inactive: -10.9% | –
33 | COc1ccc(C(=O)n2nc(C)c(Br)c2C)cc1OC | inactive: -11.2% | –
34 | CN(C)Cc1cc2ccccc2c2c1COC2 | inactive: -6.68% | –
35 | Cc1cc(C)c2nc(NC(=O)[C@@H](NC(=O)c3cccc(S(=O)(=O)N4CCOCC4)c3)C(C)C)sc2c1 | inactive: 23.9% | –
36 | Cc1noc(C)c1C(=O)Nc1cccnc1 | inactive: -25.7% | –
37 | CCOc1ccc(NC(=O)CN(C)C(=O)c2ccccc2CCc2ccccc2)cc1OCC | inactive: 3.66% | –
38 | Oc1ccccc1CN1CCCC(N2CCN(c3cccc(C(F)(F)F)c3)CC2)C1 (centres undefined) | inactive: -11.6% | –
39 | CC(=O)c1cccc(NC(=O)C(C)OC(=O)c2ccc3ncsc3c2)c1 (centres undefined) | inactive: 5.57% | –
40 | CCC(c1nnnn1Cc1ccc(F)cc1)N1CCN(C)CC1 (centres undefined) | inactive: -23.8% | –
41 | CC(C)C(=O)NC(=S)Nc1ccc(S(=O)(=O)Nc2ccccc2)cc1 | inactive: -0.159% | –
42 | COc1ccc([C@@H](NC(=O)OC(C)(C)C)C(=O)OC(C)(C)C)cc1 | inactive: -22.7% | –
43 | COC(=O)c1ccccc1NS(=O)(=O)c1ccc2c(c1)CCCN2C(C)=O | inactive: -22% | –
44 | CC(CN1CCOCC1)(NS(=O)(=O)c1ccccc1)c1ccccc1 (centres undefined) | inactive: -29.4% | –
45 | CSc1ccc(S(=O)(=O)N2CCC(C(=O)NCc3ccncc3)CC2)cc1 | inactive: -1.01% | –
46 | C[N+](C)(C)CCCCCC[N+](C)(C)C | inactive: -26.6% | –
47 | Cc1cccc([N+](=O)[O-])c1C(=O)O | inactive: -10.6% | –
48 | COC(=O)Cn1c(=NC(=O)C2COc3ccccc3O2)sc2cc(S(N)(=O)=O)ccc21 (centres undefined) | inactive: -7.75% | –
49 | O=C(NC1CCCCC1)C(c1ccc(O)cc1)N(C(=O)c1cnccn1)c1cccc(F)c1 (centres undefined) | inactive: -14.3% | –
50 | Cn1c(CNC(=O)c2cccs2)n[nH]c1=S | inactive: -24.1% | –
51 | Cc1csc(=O)n1CCC(=O)OCC(=O)Nc1ncc(Cl)cc1Cl | inactive: -22.8% | –
52 | Cc1cc(C(C)(C)C)c(O)c(C)c1CC1=NCCN1 | inactive: -22.8% | –
53 | CCCN1C[C@H](CSC)C[C@@H]2c3cccc4[nH]cc(c34)C[C@H]21 | – | active: 14.1 µM
54 | O=c1[nH]c2cc(F)ccc2c2ccc(F)cc12 | inactive: -28.4% | –

Structures from the list above with a furan ring, fused or not (4):
Row | SMILES | activity change, negative = inhibition | Potency
3 | CCOc1ccc(N2C(=O)CC(N3CCN(C(=O)c4ccco4)CC3)C2=O)cc1 (centres undefined) | inactive: -17.9% | –
19 | Clc1ccc(-c2csc(N/N=C/c3ccco3)n2)cc1 | inactive: -49.8% | –
24 | Cc1ccc(C)c(N(CC(=O)NCc2ccco2)C(=O)CNS(=O)(=O)c2ccc(F)cc2)c1 | inactive: -8.91% | –
29 | COc1ccccc1S(=O)(=O)Cc1ccc(C(=O)NCCN(C)C)o1 | inactive: -8.28% | –
